Laboratory results reported in publication PMC2033760, “Interleukin 1 modulates growth of human renal carcinoma cells in vitro” (British Journal of Cancer, 1995).
These are yes or no findings as the source states them, for the method shown. Binding seen in cells or lysates may run through a third protein. Some binding calls cover weakened binding; strength is not graded here.

The chains behind the UniProt entries cited, without tags or fusion partners. Residues count along the entry.
UniProt P14778, residues 18-569: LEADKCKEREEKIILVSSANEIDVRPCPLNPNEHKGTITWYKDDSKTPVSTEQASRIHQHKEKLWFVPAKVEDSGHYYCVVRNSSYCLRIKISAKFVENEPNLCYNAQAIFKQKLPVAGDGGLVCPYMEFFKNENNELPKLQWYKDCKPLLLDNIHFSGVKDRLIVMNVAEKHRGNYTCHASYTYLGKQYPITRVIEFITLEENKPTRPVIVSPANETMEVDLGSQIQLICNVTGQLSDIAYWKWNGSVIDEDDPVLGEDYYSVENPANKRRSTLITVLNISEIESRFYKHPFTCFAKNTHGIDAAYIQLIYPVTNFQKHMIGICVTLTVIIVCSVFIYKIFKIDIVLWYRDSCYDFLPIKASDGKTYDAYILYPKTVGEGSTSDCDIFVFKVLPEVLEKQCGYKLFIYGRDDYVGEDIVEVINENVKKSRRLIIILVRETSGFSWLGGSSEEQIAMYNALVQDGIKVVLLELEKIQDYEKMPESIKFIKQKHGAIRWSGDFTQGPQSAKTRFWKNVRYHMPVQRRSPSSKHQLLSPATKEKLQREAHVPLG

Biological target: IL-1 receptor type I (human (endogenous in A-498)) (UniProt P14778)
Assay: cross-linking; A-498 cells (90% confluent) incubated with 5 ng/ml IL-1 for 3 h at 4 C, washed, cross-linked with DSS (1 mg/ml in PBS, 1 h, 4 C), lysed in 1% Triton X-100; immunoprecipitation with antibodies against IL-1 and protein G; Western blot with the anti-IL-1 antibody; band of about 100 kDa; only the binder purified

binding: binds
B1: Human recombinant IL-1 alpha (ligand, UniProt P01583 113-271)
chain: SAPFSFLSNVKYNFMRIIKYEFILNDALNQSIIRANDQYLTAAALHNLDEAVKFDMGAYKSSKDDAKITVILRISKTQLYVTAQDEDQPVLLKEMPEIPKTITGSETNLLFFWETHGTKNYFTSVAHPNLFIATKQDYWVCLAGGPPSITDFQILENQA
